Results: publication PMC12706077
Results are given in words; binding and its absence hold for the method and conditions named. In cells and extracts the contact can be indirect. These calls come from enrichment with a bait or labelling near it, and not all partners need be listed.

By UniProt entry, the sequences of proteins in these tests, tags left out. Where a name states a change or a piece, a line headed by the entry shows the natural chain unless it says otherwise. Residues count along the entry.
UniProt P01024, residues 23-1663: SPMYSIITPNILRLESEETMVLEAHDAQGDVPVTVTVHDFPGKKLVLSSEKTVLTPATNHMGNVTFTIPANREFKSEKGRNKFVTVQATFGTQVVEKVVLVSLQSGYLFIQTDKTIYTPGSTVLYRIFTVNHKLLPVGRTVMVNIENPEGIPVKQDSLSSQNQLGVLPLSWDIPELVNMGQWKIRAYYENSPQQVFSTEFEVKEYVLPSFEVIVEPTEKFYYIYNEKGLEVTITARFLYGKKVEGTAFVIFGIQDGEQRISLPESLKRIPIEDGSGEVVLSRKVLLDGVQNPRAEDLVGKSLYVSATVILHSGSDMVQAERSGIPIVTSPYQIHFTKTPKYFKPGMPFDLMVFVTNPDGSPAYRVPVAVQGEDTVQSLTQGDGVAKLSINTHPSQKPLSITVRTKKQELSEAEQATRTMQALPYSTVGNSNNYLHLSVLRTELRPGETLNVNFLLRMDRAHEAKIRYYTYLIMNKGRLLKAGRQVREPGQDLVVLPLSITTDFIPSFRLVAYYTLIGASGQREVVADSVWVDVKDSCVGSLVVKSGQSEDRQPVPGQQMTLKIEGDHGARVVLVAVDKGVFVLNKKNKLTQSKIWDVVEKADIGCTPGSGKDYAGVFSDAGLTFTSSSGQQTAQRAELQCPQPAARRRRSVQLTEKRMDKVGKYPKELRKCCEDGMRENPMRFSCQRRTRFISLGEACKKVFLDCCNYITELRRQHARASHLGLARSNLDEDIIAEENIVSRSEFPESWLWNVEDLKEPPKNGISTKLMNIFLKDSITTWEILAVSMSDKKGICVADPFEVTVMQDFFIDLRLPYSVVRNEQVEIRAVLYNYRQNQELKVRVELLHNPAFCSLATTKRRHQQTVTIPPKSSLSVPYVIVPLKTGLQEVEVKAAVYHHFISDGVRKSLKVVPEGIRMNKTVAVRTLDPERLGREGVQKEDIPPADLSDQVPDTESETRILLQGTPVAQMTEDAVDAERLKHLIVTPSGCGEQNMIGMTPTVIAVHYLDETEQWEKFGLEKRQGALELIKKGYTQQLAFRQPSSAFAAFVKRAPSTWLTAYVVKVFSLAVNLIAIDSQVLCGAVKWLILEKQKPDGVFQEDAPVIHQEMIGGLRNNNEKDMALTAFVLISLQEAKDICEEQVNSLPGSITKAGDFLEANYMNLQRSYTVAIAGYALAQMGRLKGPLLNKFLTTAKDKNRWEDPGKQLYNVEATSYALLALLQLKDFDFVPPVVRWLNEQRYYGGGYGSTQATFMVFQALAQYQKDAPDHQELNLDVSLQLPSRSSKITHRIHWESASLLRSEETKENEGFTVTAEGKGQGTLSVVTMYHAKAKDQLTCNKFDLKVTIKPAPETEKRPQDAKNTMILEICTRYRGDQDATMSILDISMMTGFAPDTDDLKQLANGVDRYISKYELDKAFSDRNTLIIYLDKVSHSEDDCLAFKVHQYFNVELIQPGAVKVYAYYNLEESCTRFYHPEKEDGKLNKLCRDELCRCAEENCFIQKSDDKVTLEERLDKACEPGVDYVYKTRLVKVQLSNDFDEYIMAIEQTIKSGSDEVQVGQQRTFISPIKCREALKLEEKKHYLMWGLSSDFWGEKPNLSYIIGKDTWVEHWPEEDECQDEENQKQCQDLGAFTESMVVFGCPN
UniProt P00747: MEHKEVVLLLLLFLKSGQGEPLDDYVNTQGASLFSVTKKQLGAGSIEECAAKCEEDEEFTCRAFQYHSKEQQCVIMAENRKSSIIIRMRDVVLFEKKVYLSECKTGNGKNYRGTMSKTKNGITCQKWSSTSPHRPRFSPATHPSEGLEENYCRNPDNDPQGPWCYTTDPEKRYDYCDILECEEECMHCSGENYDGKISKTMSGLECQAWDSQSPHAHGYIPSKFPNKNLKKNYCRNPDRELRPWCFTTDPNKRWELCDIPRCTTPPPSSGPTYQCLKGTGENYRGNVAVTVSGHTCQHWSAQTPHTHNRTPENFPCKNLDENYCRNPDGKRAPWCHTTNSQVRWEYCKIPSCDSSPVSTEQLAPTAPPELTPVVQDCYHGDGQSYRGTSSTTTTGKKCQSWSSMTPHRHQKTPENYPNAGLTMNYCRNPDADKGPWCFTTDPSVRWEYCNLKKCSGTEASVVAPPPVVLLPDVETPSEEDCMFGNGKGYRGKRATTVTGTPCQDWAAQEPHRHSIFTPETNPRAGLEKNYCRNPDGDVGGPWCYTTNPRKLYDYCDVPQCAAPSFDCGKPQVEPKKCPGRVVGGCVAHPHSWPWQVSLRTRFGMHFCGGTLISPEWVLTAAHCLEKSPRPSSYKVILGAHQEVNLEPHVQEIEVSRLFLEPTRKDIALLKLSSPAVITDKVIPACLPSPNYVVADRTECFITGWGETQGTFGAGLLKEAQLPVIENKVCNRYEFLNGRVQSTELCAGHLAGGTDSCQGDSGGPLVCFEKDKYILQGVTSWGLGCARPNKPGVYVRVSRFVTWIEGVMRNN

Target: complement C3, from plasma, purified by the C3-specific nanobody hC3Nb2 (human (endogenous in plasma)) (UniProt P01024)
Assay: affinity purification with mass spectrometry; plasma C3 captured by His-tagged nanobody hC3Nb2 on NTA-Co2+ magnetic beads; pre-cleared human EDTA-plasma (4 healthy controls, 4 SLE patients) in PBS, 0.02% Tween-20; 1 h; washes with 600 mM NaCl; blank beads as negative control

| binding | Molecule |
| --- | --- |
| binds | plasminogen (PLG) (from UniProt P00747) |
| binds | nidogen-1 (NID1) (protein, UniProt P14543 29-1247) LSRQELFPFGPGQGDLELEDGDDFVSPALELSGALRFYDRSDIDAVYVTTNGIIATSEPPAKESHPGLFPPTFGAVAPFLADLDTTDGLGKVYYREDLSPSITQRAAECVHRGFPEISFQPSSAVVVTWESVAPYQGPSRDPDQKGKRNTFQAVLASSDSSSYAIFLYPEDGLQFHTTFSKKENNQVPAVVAFSQGSVGFLWKSNGAYNIFANDRESVENLAKSSNSGQQGVWVFEIGSPATTNGVVPADVILGTEDGAEYDDEDEDYDLATTRLGLEDVGTTPFSYKALRRGGADTYSVPSVLSPRRAATERPLGPPTERTRSFQLAVETFHQQHPQVIDVDEVEETGVVFSYNTDSRQTCANNRHQCSVHAECRDYATGFCCSCVAGYTGNGRQCVAEGSPQRVNGKVKGRIFVGSSQVPIVFENTDLHSYVVMNHGRSYTAISTIPETVGYSLLPLAPVGGIIGWMFAVEQDGFKNGFSITGGEFTRQAEVTFVGHPGNLVIKQRFSGIDEHGHLTIDTELEGRVPQIPFGSSVHIEPYTELYHYSTSVITSSSTREYTVTEPERDGASPSRIYTYQWRQTITFQECVHDDSRPALPSTQQLSVDSVFVLYNQEEKILRYALSNSIGPVREGSPDALQNPCYIGTHGCDTNAACRPGPRTQFTCECSIGFRGDGRTCYDIDECSEQPSVCGSHTICNNHPGTFRCECVEGYQFSDEGTCVAVVDQRPINYCETGLHNCDIPQRAQCIYTGGSSYTCSCLPGFSGDGQACQDVDECQPSRCHPDAFCYNTPGSFTCQCKPGYQGDGFRCVPGEVEKTRCQHEREHILGAAGATDPQRPIPPGLFVPECDAHGHYAPTQCHGSTGYCWCVDRDGREVEGTRTRPGMTPPCLSTVAPPIHQGPAVPTAVIPLPPGTHLLFAQTGKIERLPLEGNTMRKTEAKAFLHVPAKVIIGLAFDCVDKMVYWTDITEPSIGRASLHGGEPTTIIRQDLGSPEGIAVDHLGRNIFWTDSNLDRIEVAKLDGTQRRVLFETDLVNPRGIVTDSVRGNLYWTDWNRDNPKIETSYMDGTNRRILVQDDLGLPNGLTFDAFSSQLCWVDAGTNRAECLNPSQPSRRKALEGLQYPFAVTSYGKNLYFTDWKMNSVVALDLAISKETDAFQPHKQTRLYGITTALSQCPQGHNYCSVNNGGCTHLCLATPGSRTCRCPDNTLGVDCIEQK |
